# Publication PMC7819943, “Rice protein-binding microarrays: a tool to detect cis-acting elements near promoter regions in rice”
# Sequences of proteins named here, by UniProt entry; tags and fusion partners are left off.
# UniProt Q0JBA9, entry or part of it: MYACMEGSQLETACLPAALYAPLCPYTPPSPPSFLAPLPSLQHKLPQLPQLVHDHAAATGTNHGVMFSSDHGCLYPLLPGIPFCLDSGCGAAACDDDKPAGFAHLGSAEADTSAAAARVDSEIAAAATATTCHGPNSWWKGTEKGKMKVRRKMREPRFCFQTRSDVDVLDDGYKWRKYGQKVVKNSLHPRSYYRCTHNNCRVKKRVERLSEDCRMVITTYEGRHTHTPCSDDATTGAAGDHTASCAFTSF
# Some of the results follow.
# Target: OsWRKY34 (Oryza sativa, UniProt Q0JBA9 1-250)
# Assay: protein-binding microarray (RPBM); PBS, 2% BSA, 51.3 ng/ul salmon testes DNA, 50 uM zinc acetate, 200 nM TF, 25 C, 1 h; high values mean tight binding
# Settings: protein: recombinant; tags: N-terminal polyhistidine and DsRed monomer fusion (pET32a); label: CyDye5-dUTP incorporated in the synthesized complementary strand; 3' TTTTT single-stranded linker to array surface; dsDNA, one strand shown
# Procedure, shortened: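 Per-feature fluorescence intensity (arbitrary units), read on an Axon 4000B scanner, is the binding signal. Transcription factors carrying an N-terminal polyhistidine tag and DsRed fusion were expressed in E. coli BL21-CodonPlus and purified on Ni–NTA. A custom Agilent array, made double-stranded by primer extension with Cy5-dUTP and blocked with 2% BSA, was incubated with 200 nM protein in PBS, 2% BSA, salmon testes DNA and 50 µM zinc acetate at 25 °C for 1 h and then washed.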
row,Sequence,binding signal
1,CCAGGCGTCGCCGAGCTCTGCTCCGTCGTGTCAGCTTCTTCGGAGTCACCTAGTGCAG,8140 fluorescence intensity (a.u.)
2,TTCTTCAGTTTTTAACTAATCCTAATCTAGTTCTATTTTTCGGAGTCACCTAGTGCAG,8090 fluorescence intensity (a.u.)
3,CCACTTCTCGCCTTGCTCGCATTCCTTCCTTGCCTCCATCCGGAGTCACCTAGTGCAG,8400 fluorescence intensity (a.u.)
4,CACCACCACCACCACCTCTTCCCTCCCCGGCGTCCGCTCCCGGAGTCACCTAGTGCAG,9030 fluorescence intensity (a.u.)
5,AACTCACACTCGCTCGCTCATCGCCATCTCTCTCAGCTCTCGGAGTCACCTAGTGCAG,15800 fluorescence intensity (a.u.)
6,ATGTCCCGTTCTGAAAAGTAACACTCCTTCCATCTTTTTCCGGAGTCACCTAGTGCAG,9930 fluorescence intensity (a.u.)
7,TCATCCATCGCCCATTCGCCCGATGCTGTGAGTTTTCTTTCGGAGTCACCTAGTGCAG,13100 fluorescence intensity (a.u.)
8,GCCGTCGCCGCCGACACCCCGCCATCTCGCGCGACGCCGCCGGAGTCACCTAGTGCAG,8040 fluorescence intensity (a.u.)
9,CCGCGAATTTATTTACATTTTCTCATCTCATTTGTTTTCGCGGAGTCACCTAGTGCAG,13900 fluorescence intensity (a.u.)
10,CCCTTCTCACTGTTCATGTCGCTCTATCTTTACTCGCCATCGGAGTCACCTAGTGCAG,10500 fluorescence intensity (a.u.)
11,ACCCGCCCCGGCCGGCCACCGTGTAGCAAGTATACTATTTCGGAGTCACCTAGTGCAG,8160 fluorescence intensity (a.u.)
12,GTCTCTGTCCCGTCAAACTGAAGCGAGCGAGAGATTGACCCGGAGTCACCTAGTGCAG,8630 fluorescence intensity (a.u.)
13,CACGGATTCCTACGAGAGGATTCTCGTATTGTTGTGGCCCCGGAGTCACCTAGTGCAG,8170 fluorescence intensity (a.u.)
14,CAGATTTAAGCAGGTCATCTCCACTGCACATACTACTCAACGGAGTCACCTAGTGCAG,8620 fluorescence intensity (a.u.)
15,CCCGTTGCTGCCAGGTTCAGTTCGTTCAAACCAAACCTACCGGAGTCACCTAGTGCAG,9720 fluorescence intensity (a.u.)
16,TCTTATTATCGTTACAATGTCACAATATATATCACTATCACGGAGTCACCTAGTGCAG,8750 fluorescence intensity (a.u.)
17,GCTAATTATACCACTCGAGCCATTGGTTTCGGCAACAATTCGGAGTCACCTAGTGCAG,14800 fluorescence intensity (a.u.)
18,TTCCGTTATCCGCCTAACTTTTCTGTTGAGATCGGAACTTCGGAGTCACCTAGTGCAG,9600 fluorescence intensity (a.u.)
19,CTTTTCTTCCTTGTCCACCATCCCCAGTTCCCCATCACAACGGAGTCACCTAGTGCAG,9870 fluorescence intensity (a.u.)
20,TTGGTTGCACTCCTGTCTCAACACAGTATTTAACCCATGTCGGAGTCACCTAGTGCAG,8410 fluorescence intensity (a.u.)
21,CATGTGCTGCTCAGTCGCTCAGAGCCTCAGATCACCCACCCGGAGTCACCTAGTGCAG,9370 fluorescence intensity (a.u.)

# An excerpt of these results, with bars between the fields:
row | Sequence | binding signal
7 | TCATCCATCGCCCATTCGCCCGATGCTGTGAGTTTTCTTTCGGAGTCACCTAGTGCAG | 13100 fluorescence intensity (a.u.)
21 | CATGTGCTGCTCAGTCGCTCAGAGCCTCAGATCACCCACCCGGAGTCACCTAGTGCAG | 9370 fluorescence intensity (a.u.)

# Remaining list, next part:

row,Sequence,binding signal
1,GCAACTTTTTTTCCAAATGTTTGGCATCTGGTGTGTCATCCGGAGTCACCTAGTGCAG,8040 fluorescence intensity (a.u.)
2,TCTCGTTGATTTCTTTTCCCTTTGCCAGCTTTCGCTTTTCCGGAGTCACCTAGTGCAG,13800 fluorescence intensity (a.u.)
3,AAAAAGTCAACGGCGTCAAACATTTAGGGATGGAGGGAGTCGGAGTCACCTAGTGCAG,8190 fluorescence intensity (a.u.)
4,GAGATCCGATCGCCTGCCGTTTCCATATTCTTTATCCCCACGGAGTCACCTAGTGCAG,8420 fluorescence intensity (a.u.)
5,TTTTAAAACTGATTTATAATCAAAGGTTCTAATGTTTGACCGGAGTCACCTAGTGCAG,9370 fluorescence intensity (a.u.)
6,TTTTTTTCATGCCACTTAGGTAGATCGCGCATTGTGTTTTCGGAGTCACCTAGTGCAG,11000 fluorescence intensity (a.u.)
7,CAACTAACAATCAACTGACGGGAGGGGTATGGAAGGGATCCGGAGTCACCTAGTGCAG,9460 fluorescence intensity (a.u.)
8,AATCGGCCGCCGGGCACCTGACCTGACCTGACCTCTCTTCCGGAGTCACCTAGTGCAG,9210 fluorescence intensity (a.u.)
9,ATTGTCCATGATGTTCTTCCTTTTCTTTTTCGTTGTCAAACGGAGTCACCTAGTGCAG,10300 fluorescence intensity (a.u.)
10,AGCTCCGTTGATTACTTGGGCTTTTTAATGGATTCGGATGCGGAGTCACCTAGTGCAG,8580 fluorescence intensity (a.u.)
11,CATTTTCTCCTCCCTGAGTTGACCGTTCCAGTTAGTTTAACGGAGTCACCTAGTGCAG,10300 fluorescence intensity (a.u.)
12,CGTTAGTTAATAGAAACATTTGACCGGCTGATTTTTTCCGCGGAGTCACCTAGTGCAG,8110 fluorescence intensity (a.u.)
13,CTCGTCGCCGTGCTACTCTCGCTTTCTCTCTCTCTCTCTCCGGAGTCACCTAGTGCAG,12400 fluorescence intensity (a.u.)
14,CATCCCGATGCATATAGCTCTTCTCGTACCTGCAAAACCACGGAGTCACCTAGTGCAG,11900 fluorescence intensity (a.u.)
15,ACCATTCACGTACCCCGCATCGGCCGCACCTCCCCTCGCCCGGAGTCACCTAGTGCAG,11200 fluorescence intensity (a.u.)
16,AGGCTGCAGTGGATTGATGGATGGATGGGGATTCATTTGTCGGAGTCACCTAGTGCAG,8030 fluorescence intensity (a.u.)
17,TTGACCTTTTCTGTCTCTGTCACTGCAGTGCAATGCGTTTCGGAGTCACCTAGTGCAG,9110 fluorescence intensity (a.u.)
18,ATTAATTTTCTCGCTGGTAATTAACTTGCATGTGCACGTCCGGAGTCACCTAGTGCAG,9960 fluorescence intensity (a.u.)
19,CCTCTCGCCACGCGCCTCCGCACGAACCCTAGTCTCCTCTCGGAGTCACCTAGTGCAG,8300 fluorescence intensity (a.u.)
20,TCCTTCCGCTTCTCAGTCCATCCGTCGCCGCCGCCCGGCCCGGAGTCACCTAGTGCAG,8780 fluorescence intensity (a.u.)
21,ATGGAGTTTTGGATTAACACTCTTCTTCCATGGTCTTTTCCGGAGTCACCTAGTGCAG,9150 fluorescence intensity (a.u.)
